According to PMC5830631:
No constants are given. Whether binding was seen depends on the method and setting. Some results given as binding are weak or reduced against the parent protein; the word gives no strength.

Sequences of proteins named here, by UniProt entry; tags and fusion partners are left off. A change or cut given only in a name is not applied to a line headed by its entry. Residues count along the entry.
UniProt Q86T13: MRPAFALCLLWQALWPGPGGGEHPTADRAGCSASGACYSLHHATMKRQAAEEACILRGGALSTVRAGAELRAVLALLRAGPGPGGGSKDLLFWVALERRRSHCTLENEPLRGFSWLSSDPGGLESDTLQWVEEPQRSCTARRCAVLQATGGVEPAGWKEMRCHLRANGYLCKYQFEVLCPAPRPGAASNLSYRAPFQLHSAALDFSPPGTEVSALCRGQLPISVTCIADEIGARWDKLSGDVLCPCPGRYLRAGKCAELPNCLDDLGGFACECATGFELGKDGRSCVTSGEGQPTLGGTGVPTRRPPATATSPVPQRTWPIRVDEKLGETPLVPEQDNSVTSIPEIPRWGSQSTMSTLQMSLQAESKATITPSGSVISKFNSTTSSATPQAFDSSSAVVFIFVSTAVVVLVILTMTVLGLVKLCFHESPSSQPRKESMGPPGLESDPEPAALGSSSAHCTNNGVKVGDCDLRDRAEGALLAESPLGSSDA
extracellular domain of hCLEC14a: residues 22-397 of Q86T13

Biological target: extracellular domain of hCLEC14a (human) (UniProt Q86T13)
Test: ELISA; 0.625 ug hCLEC14a-ECD coated per well; 1 ug hCLEC14a-CTLD-Fc-HRP incubated in the presence or absence of increasing concentrations of deglyco C1 IgG, 2 h, room temperature; TMB, OD 450 nm; both purified

“HRP-conjugated hCLEC14a-CTLD-Fc (from UniProt Q86T13 33-173) (Fc fusion)” was tested, and the binding was “binds”.
